The other results are listed elsewhere or left out.
Compound: Cc1cc(ccc1-c1ccccc1)C(=O)N1CCCN(CC1)C(=O)CCl [compound 10]
Assay: probe-labelled cysteine peptide fold change vs DMSO (competition) (log2 fold change); higher = less target engagement (more negative = stronger competition)
Details: THP-1, incubation time: 4 h
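Note: competitive profiling in live THP-1 cells: cysteine peptides tagged with an iodoacetamide desthiobiotin (IA-DTB) probe, intensity after compound treatment relative to DMSO-treated cells.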

Sequences of proteins named here, by UniProt entry; tags and fusion partners are left off. A change or cut given only in a name is not applied to a line headed by its entry.
UniProt Q9BQS8: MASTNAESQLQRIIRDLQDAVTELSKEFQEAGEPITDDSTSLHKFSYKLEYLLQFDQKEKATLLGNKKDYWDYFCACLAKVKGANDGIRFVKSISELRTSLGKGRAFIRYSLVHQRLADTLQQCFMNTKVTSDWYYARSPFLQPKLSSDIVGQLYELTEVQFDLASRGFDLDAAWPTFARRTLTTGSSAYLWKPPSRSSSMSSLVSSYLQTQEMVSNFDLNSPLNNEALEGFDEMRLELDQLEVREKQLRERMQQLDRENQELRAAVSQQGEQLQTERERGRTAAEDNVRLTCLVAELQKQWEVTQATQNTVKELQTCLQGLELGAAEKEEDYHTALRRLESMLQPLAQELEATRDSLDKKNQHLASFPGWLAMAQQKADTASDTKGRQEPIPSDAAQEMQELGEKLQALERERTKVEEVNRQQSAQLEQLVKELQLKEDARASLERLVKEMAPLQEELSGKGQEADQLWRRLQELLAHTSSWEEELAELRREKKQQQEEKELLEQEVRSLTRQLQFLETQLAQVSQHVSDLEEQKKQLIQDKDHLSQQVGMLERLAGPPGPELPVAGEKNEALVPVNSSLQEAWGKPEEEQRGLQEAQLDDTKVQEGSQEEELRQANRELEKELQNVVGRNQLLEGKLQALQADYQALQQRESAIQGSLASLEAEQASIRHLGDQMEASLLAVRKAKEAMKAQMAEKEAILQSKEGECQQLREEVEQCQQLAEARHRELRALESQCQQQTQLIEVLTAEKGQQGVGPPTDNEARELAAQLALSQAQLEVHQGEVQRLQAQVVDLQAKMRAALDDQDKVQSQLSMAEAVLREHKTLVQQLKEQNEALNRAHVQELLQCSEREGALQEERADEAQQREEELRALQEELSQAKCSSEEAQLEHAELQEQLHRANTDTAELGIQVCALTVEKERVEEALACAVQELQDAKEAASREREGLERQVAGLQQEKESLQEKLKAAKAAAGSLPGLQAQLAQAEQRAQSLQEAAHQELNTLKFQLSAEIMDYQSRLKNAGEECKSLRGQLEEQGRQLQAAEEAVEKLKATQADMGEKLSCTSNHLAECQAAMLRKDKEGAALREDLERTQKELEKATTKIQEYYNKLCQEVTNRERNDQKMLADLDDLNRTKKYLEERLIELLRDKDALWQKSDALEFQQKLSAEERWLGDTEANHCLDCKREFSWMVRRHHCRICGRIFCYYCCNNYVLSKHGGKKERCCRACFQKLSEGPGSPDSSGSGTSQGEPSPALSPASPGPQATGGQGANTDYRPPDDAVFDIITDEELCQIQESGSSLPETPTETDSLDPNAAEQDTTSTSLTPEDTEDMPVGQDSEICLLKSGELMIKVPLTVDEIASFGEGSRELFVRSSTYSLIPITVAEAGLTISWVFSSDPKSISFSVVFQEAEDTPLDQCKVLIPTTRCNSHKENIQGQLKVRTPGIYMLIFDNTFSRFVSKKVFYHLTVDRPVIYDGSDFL
UniProt Q13451: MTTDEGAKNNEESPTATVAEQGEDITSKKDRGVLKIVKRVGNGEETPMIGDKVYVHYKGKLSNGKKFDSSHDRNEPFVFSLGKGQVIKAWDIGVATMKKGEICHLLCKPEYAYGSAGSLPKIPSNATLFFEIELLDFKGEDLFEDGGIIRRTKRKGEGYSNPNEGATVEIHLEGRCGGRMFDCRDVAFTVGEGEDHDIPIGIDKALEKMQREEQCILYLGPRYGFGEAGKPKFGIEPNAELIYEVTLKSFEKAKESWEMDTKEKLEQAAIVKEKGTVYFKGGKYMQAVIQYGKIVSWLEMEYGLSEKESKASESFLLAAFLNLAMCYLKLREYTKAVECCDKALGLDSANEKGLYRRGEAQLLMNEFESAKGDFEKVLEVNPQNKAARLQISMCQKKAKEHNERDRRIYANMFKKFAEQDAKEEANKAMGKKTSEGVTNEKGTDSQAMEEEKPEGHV
UniProt Q96CP2: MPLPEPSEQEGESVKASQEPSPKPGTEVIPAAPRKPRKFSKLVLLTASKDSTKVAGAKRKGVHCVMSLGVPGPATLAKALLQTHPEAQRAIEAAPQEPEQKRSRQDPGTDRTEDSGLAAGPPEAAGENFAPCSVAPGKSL
UniProt Q5T1M5: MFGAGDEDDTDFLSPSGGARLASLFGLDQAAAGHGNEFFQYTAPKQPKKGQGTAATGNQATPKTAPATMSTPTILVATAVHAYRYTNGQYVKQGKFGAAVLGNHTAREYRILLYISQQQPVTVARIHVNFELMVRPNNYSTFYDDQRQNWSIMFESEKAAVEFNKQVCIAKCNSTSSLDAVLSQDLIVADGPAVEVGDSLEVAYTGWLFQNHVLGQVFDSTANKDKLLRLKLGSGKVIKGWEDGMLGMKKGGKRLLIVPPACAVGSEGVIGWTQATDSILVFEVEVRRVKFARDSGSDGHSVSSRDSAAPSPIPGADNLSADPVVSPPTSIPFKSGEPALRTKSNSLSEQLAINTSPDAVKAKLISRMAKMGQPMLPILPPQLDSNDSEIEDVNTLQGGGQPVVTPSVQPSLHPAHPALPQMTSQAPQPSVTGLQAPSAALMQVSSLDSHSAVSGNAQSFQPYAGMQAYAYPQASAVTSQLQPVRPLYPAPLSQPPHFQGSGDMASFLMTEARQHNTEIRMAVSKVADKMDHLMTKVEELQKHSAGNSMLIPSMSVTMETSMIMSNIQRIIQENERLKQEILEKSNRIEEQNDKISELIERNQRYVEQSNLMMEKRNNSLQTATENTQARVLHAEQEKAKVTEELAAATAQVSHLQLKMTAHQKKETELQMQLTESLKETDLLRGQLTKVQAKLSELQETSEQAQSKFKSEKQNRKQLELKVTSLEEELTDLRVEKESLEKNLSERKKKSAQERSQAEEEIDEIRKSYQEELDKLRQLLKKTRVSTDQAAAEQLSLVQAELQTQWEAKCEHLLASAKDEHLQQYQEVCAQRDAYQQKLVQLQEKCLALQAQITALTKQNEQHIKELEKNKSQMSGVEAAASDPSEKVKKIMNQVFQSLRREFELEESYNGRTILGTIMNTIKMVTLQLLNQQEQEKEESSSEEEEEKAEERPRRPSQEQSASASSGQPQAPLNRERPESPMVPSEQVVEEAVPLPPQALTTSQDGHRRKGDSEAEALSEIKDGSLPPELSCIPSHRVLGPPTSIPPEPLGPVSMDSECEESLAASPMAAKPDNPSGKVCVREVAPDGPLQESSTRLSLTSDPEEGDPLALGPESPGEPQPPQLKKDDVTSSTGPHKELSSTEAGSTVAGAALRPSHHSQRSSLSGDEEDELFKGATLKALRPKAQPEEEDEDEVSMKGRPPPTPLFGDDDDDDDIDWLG
UniProt Q01415: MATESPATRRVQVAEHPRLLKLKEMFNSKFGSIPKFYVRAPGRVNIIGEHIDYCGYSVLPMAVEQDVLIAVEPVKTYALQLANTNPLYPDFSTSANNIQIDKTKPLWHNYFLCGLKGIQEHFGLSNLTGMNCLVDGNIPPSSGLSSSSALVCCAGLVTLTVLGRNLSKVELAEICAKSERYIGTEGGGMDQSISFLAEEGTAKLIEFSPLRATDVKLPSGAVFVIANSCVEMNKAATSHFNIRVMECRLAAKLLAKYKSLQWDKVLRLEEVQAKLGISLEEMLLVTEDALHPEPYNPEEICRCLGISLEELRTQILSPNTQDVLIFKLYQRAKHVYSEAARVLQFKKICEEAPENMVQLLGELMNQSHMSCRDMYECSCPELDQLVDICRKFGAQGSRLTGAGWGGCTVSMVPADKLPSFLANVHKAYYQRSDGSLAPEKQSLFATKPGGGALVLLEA
UniProt Q14192: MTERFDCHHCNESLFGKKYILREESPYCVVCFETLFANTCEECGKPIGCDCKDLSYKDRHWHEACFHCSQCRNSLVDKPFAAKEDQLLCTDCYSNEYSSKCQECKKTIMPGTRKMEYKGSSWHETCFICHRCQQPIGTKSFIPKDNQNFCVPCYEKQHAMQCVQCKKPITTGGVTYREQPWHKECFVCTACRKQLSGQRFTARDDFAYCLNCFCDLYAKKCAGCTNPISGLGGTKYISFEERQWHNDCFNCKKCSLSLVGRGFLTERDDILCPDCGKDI
UniProt P02751, whole entry, looked up: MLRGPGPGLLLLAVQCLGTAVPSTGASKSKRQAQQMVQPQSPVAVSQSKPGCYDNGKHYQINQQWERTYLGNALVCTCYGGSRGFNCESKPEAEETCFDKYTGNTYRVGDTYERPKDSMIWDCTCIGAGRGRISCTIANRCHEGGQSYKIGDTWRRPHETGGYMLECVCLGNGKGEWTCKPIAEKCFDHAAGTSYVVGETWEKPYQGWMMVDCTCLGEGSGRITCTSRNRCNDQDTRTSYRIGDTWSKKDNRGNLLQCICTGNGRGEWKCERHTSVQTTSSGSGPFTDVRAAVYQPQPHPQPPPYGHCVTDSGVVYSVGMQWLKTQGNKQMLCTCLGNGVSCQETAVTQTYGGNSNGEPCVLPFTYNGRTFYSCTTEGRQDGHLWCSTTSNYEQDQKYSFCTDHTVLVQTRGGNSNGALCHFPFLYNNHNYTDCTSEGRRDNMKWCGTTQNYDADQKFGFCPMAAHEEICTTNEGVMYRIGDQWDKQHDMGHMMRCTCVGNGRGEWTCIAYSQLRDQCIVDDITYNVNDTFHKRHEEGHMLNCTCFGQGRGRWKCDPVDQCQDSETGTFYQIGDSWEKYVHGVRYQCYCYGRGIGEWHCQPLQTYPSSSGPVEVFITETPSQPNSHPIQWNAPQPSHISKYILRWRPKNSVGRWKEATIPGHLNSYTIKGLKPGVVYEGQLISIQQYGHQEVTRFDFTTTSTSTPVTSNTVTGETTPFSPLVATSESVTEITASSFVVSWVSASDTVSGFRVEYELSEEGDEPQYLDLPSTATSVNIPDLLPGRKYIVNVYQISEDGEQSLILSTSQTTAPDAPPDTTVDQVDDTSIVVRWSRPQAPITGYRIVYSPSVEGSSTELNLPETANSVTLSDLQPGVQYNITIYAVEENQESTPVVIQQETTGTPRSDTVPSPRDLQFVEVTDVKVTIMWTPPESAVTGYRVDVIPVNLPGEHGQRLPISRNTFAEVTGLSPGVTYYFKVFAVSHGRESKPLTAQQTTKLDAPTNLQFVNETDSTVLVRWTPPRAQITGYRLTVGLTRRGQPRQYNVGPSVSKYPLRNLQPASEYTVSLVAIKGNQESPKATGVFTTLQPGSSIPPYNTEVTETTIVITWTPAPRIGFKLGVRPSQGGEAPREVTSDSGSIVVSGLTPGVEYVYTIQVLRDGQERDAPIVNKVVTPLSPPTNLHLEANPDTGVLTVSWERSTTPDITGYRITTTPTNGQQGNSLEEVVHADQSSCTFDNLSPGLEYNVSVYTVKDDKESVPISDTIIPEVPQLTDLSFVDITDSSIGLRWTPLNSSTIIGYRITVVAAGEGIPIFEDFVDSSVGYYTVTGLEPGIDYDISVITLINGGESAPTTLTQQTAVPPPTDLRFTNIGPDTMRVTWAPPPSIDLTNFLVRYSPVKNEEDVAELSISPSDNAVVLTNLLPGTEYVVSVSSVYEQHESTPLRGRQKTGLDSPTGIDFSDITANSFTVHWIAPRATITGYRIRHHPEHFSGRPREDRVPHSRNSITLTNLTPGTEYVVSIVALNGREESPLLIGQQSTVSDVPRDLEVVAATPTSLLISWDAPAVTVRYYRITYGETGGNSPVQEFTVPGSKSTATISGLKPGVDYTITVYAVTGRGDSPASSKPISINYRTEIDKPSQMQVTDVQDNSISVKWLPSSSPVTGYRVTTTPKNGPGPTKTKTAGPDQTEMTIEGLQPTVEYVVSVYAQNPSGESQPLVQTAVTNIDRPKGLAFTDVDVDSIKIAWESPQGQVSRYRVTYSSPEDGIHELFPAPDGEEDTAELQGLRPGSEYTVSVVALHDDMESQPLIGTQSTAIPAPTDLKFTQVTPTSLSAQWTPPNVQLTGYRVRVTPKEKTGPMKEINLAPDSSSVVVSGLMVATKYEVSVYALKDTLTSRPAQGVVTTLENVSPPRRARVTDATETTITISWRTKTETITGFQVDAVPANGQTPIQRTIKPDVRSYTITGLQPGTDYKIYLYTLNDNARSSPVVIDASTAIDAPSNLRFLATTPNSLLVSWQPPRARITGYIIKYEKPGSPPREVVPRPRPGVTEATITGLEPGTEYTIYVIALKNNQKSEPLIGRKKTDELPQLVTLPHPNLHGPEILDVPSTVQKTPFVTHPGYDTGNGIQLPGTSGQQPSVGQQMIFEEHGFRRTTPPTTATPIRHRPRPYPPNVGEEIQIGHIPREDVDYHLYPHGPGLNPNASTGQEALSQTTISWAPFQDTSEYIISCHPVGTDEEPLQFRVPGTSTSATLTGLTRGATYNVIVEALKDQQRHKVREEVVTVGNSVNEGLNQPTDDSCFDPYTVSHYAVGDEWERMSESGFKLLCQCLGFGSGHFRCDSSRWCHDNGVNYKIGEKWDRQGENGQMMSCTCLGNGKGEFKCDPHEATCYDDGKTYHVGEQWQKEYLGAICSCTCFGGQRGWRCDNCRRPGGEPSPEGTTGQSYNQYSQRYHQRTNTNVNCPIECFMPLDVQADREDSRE

Row | Target | probe-labelled cysteine peptide fold change (10 µM) | probe-labelled cysteine peptide fold change (50 µM)
1 | GABPA_Q06546_61_LQCSLDAHEICLQDIQLDPER (UniProt Q06546) | 0.155 | -0.21
2 | FYCO1_Q9BQS8_882_CSSEEAQLEHAELQEQLHR (UniProt Q9BQS8) | 0.152 | -0.112
3 | FKBP5_Q13451_394_LQISMCQK (UniProt Q13451) | -0.0827 | -0.272
4 | FLOT2_Q14254_56_CEDVETAEGVALTVTGVAQVK (UniProt Q14254) | -0.116 | 0.0576
5 | FLNB_O75369_2057_VDIQTEDLEDGTCK (UniProt O75369) | -0.0403 | 0.123
6 | FSCN1_Q16658_121_LSCFAQTVSPAEK (UniProt Q16658) | 0.146 | 0.227
7 | FMNL3_Q8IVF7_469_CHLEPNVR (UniProt Q8IVF7) | 0.0936 | -0.184
8 | FLYWCH2_Q96CP2_64_GVHCVMSLGVPGPATLAK (UniProt Q96CP2) | -0.089 | -0.439
9 | FKBP15_Q5T1M5_1031_DGSLPPELSCIPSHR (UniProt Q5T1M5) | -0.301 | -0.0969
10 | FLNB_O75369_706_MDGTYACSYTPVK (UniProt O75369) | -0.0694 | -0.037
11 | FTO_Q9C0B1_308_ISWDIETPGLAIPLHQGDCYFMLDDLNATHQHCVLAGSQPR (UniProt Q9C0B1) | 0.112 | 0.242
12 | FIG4_Q92562_839_NSQQPCSR (UniProt Q92562) | -0.0261 | -0.31
13 | GALK2_Q01415_349_ICEEAPENMVQLLGELMNQSHMSCR (UniProt Q01415) | 0.442 | 0.0659
14 | FHL2_Q14192_92_EDQLLCTDCYSNEYSSK (UniProt Q14192) | 0.158 | -0.0868
15 | FTSJ1_Q9UET6_295_EIRPQDCPISR (UniProt Q9UET6) | -0.22 | -0.263
16 | FPGS_Q05932_315_SNAALALQLAHCWLQR (UniProt Q05932) | 0.109 | -0.365
17 | FNBP1_Q96RU3_555_VLATDFDDEFDDEEPLPAIGTCK (UniProt Q96RU3) | -0.298 | -0.354

Laid out differently: results already given
Row,Target,probe-labelled cysteine peptide fold change (10 µM),probe-labelled cysteine peptide fold change (50 µM)
2,FYCO1_Q9BQS8_882_CSSEEAQLEHAELQEQLHR (UniProt Q9BQS8),0.152,-0.112
14,FHL2_Q14192_92_EDQLLCTDCYSNEYSSK (UniProt Q14192),0.158,-0.0868

Carrying on.

Row | Target | probe-labelled cysteine peptide fold change (10 µM) | probe-labelled cysteine peptide fold change (50 µM)
18 | FKBP5_Q13451_340_AVECCDK (UniProt Q13451) | -0.225 | -0.444
19 | FMNL1_O95466_69_KWELICDQER (UniProt O95466) | 0.058 | -0.087
20 | FUBP1_Q96AE4_148_SCMLTGTPESVQSAKR (UniProt Q96AE4) | 0.287 | -0.336
21 | FKBP15_Q5T1M5_828_DEHLQQYQEVCAQR (UniProt Q5T1M5) | -0.134 | 0.169
22 | FOCAD_Q5VW36_392_QQLALNLLEMIQQECYR (UniProt Q5VW36) | -0.143 | -0.14
23 | FUCA2_Q9BTY2_294_WENCMTIDK (UniProt Q9BTY2) | -0.00646 | 0.0599
24 | GALK2_Q01415_349_KICEEAPENMVQLLGELMNQSHMSCR (UniProt Q01415) | -0.0129 | -0.0841
25 | FRG1_Q14331_159_CNEAGDIEAK (UniProt Q14331) | -0.039 | -0.204
26 | FNDC3A_Q9Y2H6_369_GTPSEAEIFTTLSCEPDIPNPPR (UniProt Q9Y2H6) | -0.256 | 0.221
27 | GABPB1_Q06547_331_QCIEIIENRVESAEIEER (UniProt Q06547) | -0.455 | -0.214
28 | FN1_P02751_386_QDGHLWCSTTSNYEQDQK (UniProt P02751) | -0.186 | -0.163
29 | FRRS1_Q6ZNA5_107_NAEDLNGPPIGSFTLIDSEVSQLLTCEDIQGSAVSHR (UniProt Q6ZNA5) | 0.554 | 0.95
30 | FXR2_P51116_282_IYGETPEACR (UniProt P51116) | 0.408 | 0.0833
31 | FSCN1_Q16658_334_NASCYFDIEWR (UniProt Q16658) | 0.0575 | 0.117
32 | FN1_P02751_141_CHEGGQSYK (UniProt P02751) | -0.311 | -0.66
33 | FLNB_O75369_450+455_SPFVVQVGEACNPNACR (UniProt O75369) | -0.278 | -0.235

From the supplement of paper PMC12067093, “Discovery and optimisation of a covalent ligand for TRIM25 and its application to targeted protein ubiquitination” (Chemical Science, 2025)
